From patent US5556847A, “Methods of effecting memory enhancement mediated by steroid sulfatase inhibitors” (Duquesne University of the Holy Ghost, priority 1994, dated 1996)

Test system: scopolamine-induced amnesia
Assay: passive avoidance paradigm, reversal of scopolamine-induced amnesia (crossover latency)
Assay type: in vivo, rats
Conditions: saline one hour before and scopolamine 1 mg/Kg IP 30 minutes before acquisition trial; latency 24 hours later (no scopolamine: 583.8±16.2 sec)
Procedure: Male rats weighing between 80 and 100 grams were purchased from Hilltop Lab Animals Inc. (Scottdale, Pa.) and housed in hanging wire mesh cages in groups of three with water and rat chow available ad libitum. The room in which the animals were housed was controlled for both temperature and humidity, there was a standard 12 hour, light/dark cycle. To assess memory, the Gemini Avoidance System (San Diego Instruments) was utilized in a standard passive avoidance paradigm. Briefly, the avoidance apparatus consisted of a box (53×53×32 cm) with two compartments connected by an opening with a sliding door. The room in which the rat was placed was brightly lit, while the other room was dark. Initially, the animals were allowed to explore the apparatus and were then removed. During the memory acquisition trial, animals were placed in the light compartment. […] Twenty-four hours later the rat was again placed in the light side of the apparatus and the time latency to crossing to the dark room recorded. […] The acquisition of memory for the foot shock was assessed as an increased latency period before entering the dark room on the second day. Significant differences in crossover latency were determined by statistical analysis utilizing one-way analysis of a variance with a Dunnett's test post hoc. […]

Question: `CN1[C@@H]2C[C@@H](OC(=O)[C@H](CO)c3ccccc3)C[C@H]1[C@@H]1O[C@@H]12` [scopolamine, reference compound] was tested. Which retention latency did it give?
Answer: Its retention latency is 21.1 ± 10.9 s.
